Record: PubChem BioAssay AID720505 (Drosophila RNAi Screening Center, 2013)
Screen: 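Knock-downs that reduce calcium influx once internal stores are emptied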 (primary screen). Cells: Drosophila S2R+ cells. Reagents: long dsRNA against Drosophila genes. Treatment: thapsigargin (2 µM) in calcium-free buffer to empty internal stores, then 2 mM calcium added back. Measured: 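Stores emptied by 2 µM thapsigargin without calcium, then 2 mM calcium re-added; fluo-4 fluorescence followed by FLIPR in 384-well plates, per-well averaged endpoint, raw; two screen passes, some wells retested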. Scale: calcium signal and retest calcium signal: higher = more calcium entry after store depletion. Call rule: 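About 1500 genes called as lowering calcium entry, by varying amounts, judged against per-plate control wells with STIM1 as positive and Rho1 as negative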. Calls: active = called as lowering calcium entry; inactive = not called.
In all, the deposit lists about 20,000 reagents; this is an unselected part of those that have a named target and a result. Of all reagents, about 2,100 (10%) got an active call. 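Raw plate signals without normalisation; calls rest on control-based scores that were not deposited; replicate 2 separates called from uncalled poorly.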 Unmarked entries are inactive. Reagents against one gene are numbered here. Names joined by + are all predicted targets of the reagent. Not stated in the record: the amount of reagent, the time to read-out.

gene knocked down | dsRNA no. | calcium signal, replicate 1 | calcium signal, replicate 2 | retest calcium signal, replicate 1 | retest calcium signal, replicate 2
CG8475 | 1 | 129 | 215 | – | –
Crag | 1 | 88.6 (active) | 56.5 | – | –
CG4770 | 1 | 195 | 164 | – | –
dysf (dysfusion) | 1 | 203 | 137 | – | –
dysf (dysfusion) | 2 | 247 | 113 | – | –
dysf (dysfusion) | 3 | 225 | 108 | – | –
dysf (dysfusion) | 4 | 224 | 122 | – | –
Rbf (Retinoblastoma-family protein) | 1 | 60.2 (active) | 122 | – | –
Mur18B (Mucin related 18B) | 1 | 141 | 116 | – | –
CG4325 | 1 | 82.1 | 112 | – | –
CG4325 | 2 | 110 | 104 | – | –
CG31960 | 1 | 138 | 88.8 | – | –
CG10651 | 1 | 89.7 | 117 | – | –
upd2 (unpaired 2) | 1 | 85.9 | 158 | 120 | 130
Cap-H2 (Chromosome associated protein H2) | 1 | 87.9 | 140 | – | –
Toll-7 | 1 | 144 | 156 | 85.2 | 95.8
CG45105 | 1 | 146 | 164 | – | –
CG45105 | 2 | 127 | 144 | – | –
PQBP1 (Poly-glutamine tract binding protein 1) | 1 | 224 | 270 | – | –
Ir7e (Ionotropic receptor 7e) | 1 | 105 | 130 | – | –
sac (sterile affecting ciliogenesis) | 1 | 111 | 247 | – | –
ND-75 (NADH dehydrogenase (ubiquinone) 75 kDa subunit) | 1 | 168 | 85.8 | – | –
Vha100-2 (Vacuolar H[+] ATPase 100kD subunit 2) | 1 | 146 | 299 | – | –
Dh44 (Diuretic hormone 44) | 1 | 130 | 109 | – | –
CG6962 | 1 | 79.3 (active) | 102 | – | –
Nazo | 1 | 89.5 | 143 | – | –
scf (supercoiling factor) | 1 | 66.3 | 98.2 | – | –
eIF5 (eukaryotic translation initiation factor 5) | 1 | 97 | 104 | – | –
lncRNA:roX1 (long non-coding RNA on the X 1) | 1 | 64 | 157 | – | –
CG2614 | 1 | 76 | 105 | – | –
bves | 1 | 66.4 (active) | 159 | – | –
bves | 2 | 76.7 (active) | 148 | – | –
bves | 3 | 173 | 98.6 | – | –
CG14968 | 1 | 77.8 | 109 | – | –
Obp57c + Obp57b | 1 | 77.4 | 156 | – | –
ppk30 (pickpocket 30) | 1 | 96.8 (active) | 118 | – | –
beta4GalT7 (beta-4-galactosyltransferase 7) | 1 | 210 | 176 | – | –
CG5968 | 1 | 96 | 114 | – | –
Nca (Neurocalcin) | 1 | 85.6 | 126 | – | –
tpr (tracheal-prostasin) | 1 | 137 | 100 | – | –
lqfR (liquid facets-Related) | 1 | 137 | 163 | – | –
lqfR (liquid facets-Related) | 2 | 173 | 116 | – | –
yuri (yuri gagarin) | 1 | 71.1 (active) | 64.6 | – | –
yuri (yuri gagarin) | 2 | 62.1 (active) | 87.2 | – | –
yuri (yuri gagarin) | 3 | 80.5 (active) | 114 | – | –
yuri (yuri gagarin) | 4 | 135 | 160 | – | –
babo (baboon) | 1 | 92.4 | 96.2 | – | –
Dtwd2 + Obp84a | 1 | 71.8 (active) | 141 | – | –
DCX-EMAP | 1 | 81.9 | 107 | – | –
DCX-EMAP | 2 | 110 | 180 | – | –
Eph (Eph receptor tyrosine kinase) | 1 | 93.5 | 150 | – | –
CG30323 | 1 | 85.4 | 110 | – | –
comt (comatose) | 1 | 66.2 (active) | 78.7 | – | –
CPT2 (Carnitine palmitoyltransferase 2) | 1 | 152 | 99.4 | – | –
Obp99c (Odorant-binding protein 99c) | 1 | 160 | 224 | – | –
Ugt303A1 (UDP-glycosyltransferase family 303 member A1) | 1 | 86.2 | 72.8 | – | –
Cyp12e1 (Cytochrome P450 12e1) | 1 | 160 | 111 | – | –
Vps28 (Vacuolar protein sorting 28) | 1 | 190 | 203 | – | –
CecB (Cecropin B) | 1 | 141 | 79.7 | – | –
CG7430 | 1 | 129 | 113 | – | –
Itgbn (Integrin betanu subunit) | 1 | 174 | 118 | – | –
CG5265 | 1 | 159 | 161 | – | –
Inos (myo-inositol-1-phosphate synthase) | 1 | 152 | 135 | – | –
park (parkin) | 1 | 133 | 107 | – | –
ND-51L2 (NADH dehydrogenase (ubiquinone) 51 kDa subunit-like 2) | 1 | 129 | 198 | – | –
corto | 1 | 112 | 105 | – | –
corto | 2 | 83 | 183 | – | –
corto | 3 | 117 | 138 | – | –
CG13627 | 1 | 244 | 166 | – | –
Yp1 (Yolk protein 1) | 1 | 64.7 (active) | 80.2 | – | –
CG15044 | 1 | 91.2 | 150 | – | –
CG15044 | 2 | 130 | 80.7 | – | –
Ufd1 (Ubiquitin fusion-degradation 1-like) | 1 | 133 | 162 | – | –
L2HGDH (L-2-hydroxyglutarate dehydrogenase) | 1 | 76.9 | 109 | – | –
RpLP1 (Ribosomal protein LP1) | 1 | 210 | 94.7 | – | –
RpLP1 (Ribosomal protein LP1) | 2 | 68.5 (active) | 93.2 | – | –
CG7924 | 1 | 71.6 (active) | 149 | – | –
CG15337 | 1 | 317 | 146 | – | –
CG15337 | 2 | 107 | 149 | – | –
AlaRS (Alanyl-tRNA synthetase) | 1 | 81.8 | 251 | – | –
CG15701 | 1 | 154 | 135 | – | –
GstD10 (Glutathione S transferase D10) | 1 | 110 | 94.5 | – | –
glec (gliolectin) | 1 | 251 | 182 | – | –

Already shown: entries from further up.
gene knocked down | dsRNA no. | calcium signal, replicate 1 | calcium signal, replicate 2 | retest calcium signal, replicate 1 | retest calcium signal, replicate 2
CecB (Cecropin B) | 1 | 141 | 79.7 | – | –
CG7430 | 1 | 129 | 113 | – | –
Itgbn (Integrin betanu subunit) | 1 | 174 | 118 | – | –
CG5265 | 1 | 159 | 161 | – | –
Inos (myo-inositol-1-phosphate synthase) | 1 | 152 | 135 | – | –
park (parkin) | 1 | 133 | 107 | – | –
ND-51L2 (NADH dehydrogenase (ubiquinone) 51 kDa subunit-like 2) | 1 | 129 | 198 | – | –
corto | 1 | 112 | 105 | – | –
corto | 2 | 83 | 183 | – | –
corto | 3 | 117 | 138 | – | –
CG13627 | 1 | 244 | 166 | – | –
